In data set [1] the target is FOXO4 A3 T32A,S197A,S262A (UniProt P98177). Put plainly: EMSA supershift. The following applies: 500-fold mutant competitor N2 present; EMSA: 10% glycerol, 12 mM HEPES pH 7.9, 4 mM Tris-HCl pH 7.9, 60 mM KCl, 1 mM DTT, 0.6 mg/ml BSA, 0.5 ug poly(dI-dC), 20 ul, 30 min at 25 C; supershift 1 h at 4 C; protein in a lysate after overexpression; label: 32P.
For data set [2], the target named is FOXO4 (UniProt P98177). The data set is described as follows: EMSA. Particulars: 500-fold mutant competitor N2 present; EMSA: 10% glycerol, 12 mM HEPES pH 7.9, 4 mM Tris-HCl pH 7.9, 60 mM KCl, 1 mM DTT, 0.6 mg/ml BSA, 0.5 ug poly(dI-dC), 20 ul, 30 min at 25 C; supershift 1 h at 4 C; protein in a lysate after overexpression; label: 32P.
Data set [3] concerns GST. The data set is described as follows: EMSA. Particulars: EMSA: 10% glycerol, 12 mM HEPES pH 7.9, 4 mM Tris-HCl pH 7.9, 60 mM KCl, 1 mM DTT, 0.6 mg/ml BSA, 0.5 ug poly(dI-dC), 20 ul, 30 min at 25 C; supershift 1 h at 4 C; recombinant protein; label: 32P.
For data set [4], the system named is FOXA2 (HNF-3beta). The data set is described as follows: EMSA. The following applies: 500-fold mutant competitor N2 present; EMSA: 10% glycerol, 12 mM HEPES pH 7.9, 4 mM Tris-HCl pH 7.9, 60 mM KCl, 1 mM DTT, 0.6 mg/ml BSA, 0.5 ug poly(dI-dC), 20 ul, 30 min at 25 C; supershift 1 h at 4 C; protein in a lysate after overexpression; label: 32P.
For data set [5], the target named is FOXO3 (UniProt O43524). Put plainly: EMSA. The following applies: 500-fold mutant competitor N2 present; EMSA: 10% glycerol, 12 mM HEPES pH 7.9, 4 mM Tris-HCl pH 7.9, 60 mM KCl, 1 mM DTT, 0.6 mg/ml BSA, 0.5 ug poly(dI-dC), 20 ul, 30 min at 25 C; supershift 1 h at 4 C; protein in a lysate after overexpression; label: 32P.

Amino acid sequences for entries named in this document (tags omitted). A change or cut given only in a name is not applied to a line headed by its entry.
UniProt P98177, whole entry T32A/S197A/S262A: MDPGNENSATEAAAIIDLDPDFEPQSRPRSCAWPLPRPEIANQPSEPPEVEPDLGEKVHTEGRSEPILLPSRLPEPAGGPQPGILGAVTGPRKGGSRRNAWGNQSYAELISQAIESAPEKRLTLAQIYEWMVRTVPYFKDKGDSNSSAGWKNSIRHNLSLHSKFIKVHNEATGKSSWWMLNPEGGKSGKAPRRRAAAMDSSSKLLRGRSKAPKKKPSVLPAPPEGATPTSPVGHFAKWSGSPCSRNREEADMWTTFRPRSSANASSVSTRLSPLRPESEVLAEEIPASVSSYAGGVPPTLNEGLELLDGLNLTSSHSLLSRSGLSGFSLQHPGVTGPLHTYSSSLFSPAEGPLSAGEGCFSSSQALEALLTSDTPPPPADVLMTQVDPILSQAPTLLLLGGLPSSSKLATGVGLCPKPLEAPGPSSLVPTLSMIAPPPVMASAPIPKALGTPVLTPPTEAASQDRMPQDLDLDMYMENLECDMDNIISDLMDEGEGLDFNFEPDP
UniProt O43524: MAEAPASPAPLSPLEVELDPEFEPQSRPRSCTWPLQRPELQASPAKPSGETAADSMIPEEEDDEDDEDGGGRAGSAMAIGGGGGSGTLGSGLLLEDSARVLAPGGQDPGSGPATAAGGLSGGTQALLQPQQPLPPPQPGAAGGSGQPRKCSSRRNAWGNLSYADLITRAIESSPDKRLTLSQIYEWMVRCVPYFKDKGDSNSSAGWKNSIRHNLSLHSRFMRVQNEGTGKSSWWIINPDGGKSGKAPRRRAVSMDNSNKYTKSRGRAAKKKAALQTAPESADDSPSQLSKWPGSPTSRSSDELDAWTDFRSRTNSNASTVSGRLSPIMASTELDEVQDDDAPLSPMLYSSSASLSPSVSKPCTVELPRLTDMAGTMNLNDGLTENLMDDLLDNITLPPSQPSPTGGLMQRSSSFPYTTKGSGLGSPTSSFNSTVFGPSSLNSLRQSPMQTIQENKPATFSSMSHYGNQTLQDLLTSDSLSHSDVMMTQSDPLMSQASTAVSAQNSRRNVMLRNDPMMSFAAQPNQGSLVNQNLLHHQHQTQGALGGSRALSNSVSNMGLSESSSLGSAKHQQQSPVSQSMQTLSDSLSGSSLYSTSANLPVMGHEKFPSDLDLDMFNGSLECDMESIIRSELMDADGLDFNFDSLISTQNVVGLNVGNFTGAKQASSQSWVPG

For at least one entry, the source does not settle the construct or the ends of the probe. For some assays here: No signal at the amounts used counts as a negative. For some assays here: At least one result comes from cells or an extract, where the contact may be indirect.

With “GGGGAGGGAGGTAAACAAGATGGCGGC (double strand) [LKB1 FOXO site oligo WT]”, the binding result was “binds” in data set [1]; “binds” in data set [2]; “no binding” in data set [3]; “binds” in data set [4]; “binds” in data set [5].

The values above are taken from PMC3295762, “Gene Expression of the Tumour Suppressor LKB1 Is Mediated by Sp1, NF-Y and FOXO Transcription Factors”.
